Plain letter strings leave the end groups untold.

This series is described as follows: peptide made by a vendor (Fmoc solid-phase peptide synthesis). To be noted: whole synthesis, high performance liquid chromatography; composition by mass spectrometry.

HADGTFISDYSTILDNLAARDFINWLIQTKITD: the “final HPLC purity” value was 95.30%.

(Values after patent US12617831B2 (UNIVERSITE D'ANGERS, priority 2019, dated 2026).)
